This passage reports binding results from publication PMC4521722.

The assay has as its target T1, endogenous Arabidopsis thaliana DNA Pol λ (AtPolλ) (Arabidopsis thaliana (endogenous in Col-0 seedlings)) (UniProt Q9FNY4).
T1 sequence: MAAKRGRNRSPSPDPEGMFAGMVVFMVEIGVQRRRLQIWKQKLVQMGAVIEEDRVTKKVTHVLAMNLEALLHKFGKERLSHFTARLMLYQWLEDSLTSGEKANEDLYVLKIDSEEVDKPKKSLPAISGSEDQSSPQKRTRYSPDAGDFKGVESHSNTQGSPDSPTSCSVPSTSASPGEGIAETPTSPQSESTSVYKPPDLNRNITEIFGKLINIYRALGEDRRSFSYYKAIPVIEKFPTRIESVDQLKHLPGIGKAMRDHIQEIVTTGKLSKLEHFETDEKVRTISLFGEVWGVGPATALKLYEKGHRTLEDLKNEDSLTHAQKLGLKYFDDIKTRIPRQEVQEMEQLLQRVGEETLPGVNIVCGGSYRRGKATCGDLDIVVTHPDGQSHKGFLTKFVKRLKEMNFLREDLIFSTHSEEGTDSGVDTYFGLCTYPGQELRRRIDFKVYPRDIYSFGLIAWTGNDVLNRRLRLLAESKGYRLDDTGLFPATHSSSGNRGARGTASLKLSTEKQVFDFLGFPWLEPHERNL
As to the kind of experiment: co-IP; endogenous proteins; Arabidopsis seedlings cross-linked with 1% formaldehyde; extract immunoprecipitated with affinity purified anti-AtPolλ polyclonal antibody, probed with anti-HSP90 antibody (1:500); atpolλ-1 null line as negative control; vehicle (1% DMSO) sample of Fig 8C.

These are yes or no findings as the source states them, for the method shown. In cells and extracts the contact can be indirect. A result given as binding can be weak or reduced; the word gives no strength.

As for endogenous Arabidopsis HSP90, the binding result is reported as “binds”.
